Source: PubChem BioAssay AID651768 (National Center for Advancing Translational Sciences (NCATS), 2012)
Hit rate of the full screen: of about 360,000 compounds, about 1,700 (0.47%) were called active. Inconclusive means that the source gave no clear call. Such entries were picked first, then a sample of the others. Calls come from the whole dose curve; as a rule, active = well fitted inhibition curve with a large enough effect; inconclusive = small, poorly fitted or top-dose-only effect; inactive = no such curve, though single readings can be large or run the other way. Potencies beside an inconclusive call are fits to weak or partial responses and may not hold up.

Amino acid sequences for entries named in this document (tags omitted).
UniProt Q14191, whole entry, looked up: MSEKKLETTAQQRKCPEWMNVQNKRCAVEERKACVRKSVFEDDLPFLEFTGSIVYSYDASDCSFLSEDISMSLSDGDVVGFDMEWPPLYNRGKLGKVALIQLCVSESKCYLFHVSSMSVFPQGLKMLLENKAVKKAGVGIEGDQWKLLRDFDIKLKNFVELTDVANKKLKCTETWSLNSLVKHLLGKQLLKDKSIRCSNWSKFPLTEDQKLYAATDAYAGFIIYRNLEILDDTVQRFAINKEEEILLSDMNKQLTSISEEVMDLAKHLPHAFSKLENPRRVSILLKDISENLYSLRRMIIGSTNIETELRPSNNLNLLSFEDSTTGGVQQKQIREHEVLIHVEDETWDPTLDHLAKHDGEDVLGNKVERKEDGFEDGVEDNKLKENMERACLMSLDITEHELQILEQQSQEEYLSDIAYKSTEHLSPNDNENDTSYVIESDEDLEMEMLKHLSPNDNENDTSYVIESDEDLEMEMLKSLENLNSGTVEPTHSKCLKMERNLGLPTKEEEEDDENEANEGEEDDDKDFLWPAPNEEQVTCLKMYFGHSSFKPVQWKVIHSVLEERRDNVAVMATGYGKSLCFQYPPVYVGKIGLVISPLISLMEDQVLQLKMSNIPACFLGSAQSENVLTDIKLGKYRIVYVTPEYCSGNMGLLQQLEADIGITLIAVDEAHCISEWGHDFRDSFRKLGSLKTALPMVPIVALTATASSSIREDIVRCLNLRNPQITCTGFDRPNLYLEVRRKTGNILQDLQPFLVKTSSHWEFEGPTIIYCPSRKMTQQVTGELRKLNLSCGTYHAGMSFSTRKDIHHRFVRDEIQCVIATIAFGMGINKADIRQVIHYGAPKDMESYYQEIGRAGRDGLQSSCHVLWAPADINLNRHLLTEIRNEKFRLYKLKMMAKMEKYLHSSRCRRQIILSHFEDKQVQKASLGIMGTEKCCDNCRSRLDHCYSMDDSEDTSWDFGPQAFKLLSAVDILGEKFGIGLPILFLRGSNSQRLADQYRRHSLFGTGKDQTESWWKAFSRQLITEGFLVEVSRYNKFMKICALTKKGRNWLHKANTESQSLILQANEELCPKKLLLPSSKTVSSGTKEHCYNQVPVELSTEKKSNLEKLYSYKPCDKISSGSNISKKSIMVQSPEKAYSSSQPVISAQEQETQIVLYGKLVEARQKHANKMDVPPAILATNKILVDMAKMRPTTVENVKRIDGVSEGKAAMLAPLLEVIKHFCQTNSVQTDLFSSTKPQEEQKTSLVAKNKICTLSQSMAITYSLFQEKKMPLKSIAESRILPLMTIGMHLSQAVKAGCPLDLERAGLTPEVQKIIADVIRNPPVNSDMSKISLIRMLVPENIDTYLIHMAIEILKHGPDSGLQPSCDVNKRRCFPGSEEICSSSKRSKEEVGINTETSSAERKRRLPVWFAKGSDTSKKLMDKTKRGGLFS

Biological target: Bifunctional 3'-5' exonuclease/ATP-dependent helicase WRN (Homo sapiens) (UniProt Q14191)
Assay: qHTS for Inhibitors of WRN Helicase; note: nearly all actives have a fitted effect of over 55% in size
Conditions: WRN helicase unwinding, fluorescent forked duplex, kinetic; activity change, negative = inhibition: at 114 µM (top of the series) unless noted
Summary of the method: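 Kinetic red-fluorescence monitoring (525/598 nm) tracks WRN helicase activity after 100 nM fluorophore-quencher forked duplex and 2 mM ATP are added to 20 nM enzyme pretreated 15 min at room temperature with compound.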
% is set by controls: 0 for no effect and ±100 for the full control effect; potency is the fitted concentration of half-maximal effect.

Row | SMILES | Potency | activity change, negative = inhibition
1 | O=C(c1ccc(Cl)c(S(=O)(=O)N2CCc3ccccc32)c1)N1CCN(c2ccccc2O)CC1 | inconclusive: 28.2 µM [inhibitor, full curve] | –
2 | CC(C)OC(=O)CSc1nc2ccccc2s1 | – | inactive: -0.441%
3 | CCOC(=O)Cn1c(=N)n(CCOc2cccc(C)c2)c2ccccc21 | – | inactive: 0.918%
4 | COc1ccc(Br)cc1C(=O)Nc1ccc(Cc2ccncc2)cc1 | inconclusive: 79.4 µM [inhibitor, single point] | –
5 | Cc1cc2nc(-c3ccc(SCc4ccc(C(=O)O)cc4)nc3)[nH]c2cc1C | inconclusive: 20 µM [inhibitor, partial curve] | –
6 | CCOC(=O)c1sc(=S)n(C)c1NC(=O)c1ccccc1C | inconclusive: 63.1 µM [inhibitor, partial curve, poor fit] | –
7 | Cc1ccc(CNc2ccc(O)cc2)cc1 | inconclusive: 50.1 µM [inhibitor, partial curve] | –
8 | O=C1COc2ccc(C(=O)COC(=O)c3ccc4ccccc4n3)cc2N1 | inconclusive: 13.4 µM [inhibitor, partial curve] | –
9 | O=C(/C=C/c1cccnc1)c1cc(F)ccc1O | – | inactive: 1.96%
10 | Cc1n[nH]c(=S)n(NC(=O)/C=C/C(=O)Nn2c(=S)[nH]nc(C)c2=O)c1=O | active: 17.8 µM | –
11 | CN1C(=O)/C(=C/c2ccc(-c3ccccc3[N+](=O)[O-])o2)SC1=Nc1ccc(Cl)c(C(=O)O)c1 | active: 56.2 µM | –
12 | CC(C)(C)NC(=O)CSc1nc2ccccc2n1-c1ccccc1 | – | inconclusive: -40.9% [inhibitor] [at 57.1 µM]
13 | COc1cc(-c2nnc(CSc3nnc(Nc4ccc(Oc5ccccc5)cc4)s3)o2)cc(OC)c1OC | inconclusive: 31.6 µM [inhibitor, single point] | –
14 | C#CCOCCOCCOCCNc1nc(N2CCN(C(=O)CCCCCCCCCCNC(=O)Cn3cc(CCCCCN)nn3)CC2)nc(N2CCN(C(=O)CCCCCCCCCCNC(=O)[C@H](CO)n3cc(CCCCCN)nn3)CC2)n1 | active: 79.4 µM | –
15 | O=C(c1nc2ccccn2c1CNCCCn1cccn1)N1CCCC1 | – | inactive: -6.68%
16 | O=C(N/N=C/c1ccc(OC(=O)c2ccccc2)cc1)c1cccnc1 | active: 56.2 µM | –
17 | COc1ccccc1C1CN(c2ccccc2)N=C1c1cccs1 (centres undefined) | – | inactive: -11.3% [at 57.1 µM]
18 | Cc1ccc(NC2CCCN(C(=O)CSc3ccccn3)C2)cc1C (centres undefined) | – | inactive: -32.6%
19 | Nc1ccc2cc3[nH]c4cc(N)ccc4c3nc2c1 | active: 25.1 µM | –
20 | COc1ccc(CCN2CC(C(=O)NCCc3cnn(C)c3)CCC2=O)cc1 (centres undefined) | – | inactive: -3.44%
21 | Cc1ccc(-n2c(C)nc3oc4ccccc4c(=O)c3c2=O)cc1 | inconclusive: 23.8 µM [inhibitor, partial curve] | –
22 | CN1/C(=C/c2cc[n+](C)c3ccccc23)C=Cc2ccccc21 | active: 28.2 µM | –
23 | CCn1c(=O)c(-c2cc(=O)[nH][nH]2)c(O)c2ccccc21 | – | inactive: -7.22%
24 | CCCOc1ccc(Cc2nn3c(=O)/c(=C/c4ccco4)sc3nc2=O)cc1 | active: 56.2 µM | –
25 | O=C(Nc1cccc(O)c1)c1ccc(NC(=O)c2cccs2)cc1 | inconclusive: 15.8 µM [inhibitor, full curve, poor fit] | –

Look-ups from above:
`Cc1n[nH]c(=S)n(NC(=O)/C=C/C(=O)Nn2c(=S)[nH]nc(C)c2=O)c1=O` – Potency: active: 17.8 µM
`COc1ccc(Br)cc1C(=O)Nc1ccc(Cc2ccncc2)cc1` – Potency: inconclusive: 79.4 µM [inhibitor, single point]
`COc1ccc(CCN2CC(C(=O)NCCc3cnn(C)c3)CCC2=O)cc1` (centres undefined) – activity change, negative = inhibition: inactive: -3.44%

(more compounds)

Row | SMILES | Potency | activity change, negative = inhibition
26 | O=C(CCN1C(=O)c2ccccc2C1=O)NCc1ccco1 | – | inactive: -11.6%
27 | S=c1[nH]nc(-c2ccncc2)n1/N=C/C=C/c1ccco1 | inconclusive: 63.1 µM [inhibitor, single point] | –
28 | COc1ccc(S(=O)(=O)N(C)CC(=O)Nc2ccccc2SC)cc1 | – | inactive: -3.54%
29 | CCSc1nnc(NC(=O)Cn2cnc3c2c(=O)n(C)c(=O)n3C)s1 | – | inactive: -9.11%
30 | COc1ccc(NC(=O)C(NC(=O)c2ccc(=O)[nH]c2)c2ccc(C)cc2)cc1 (centres undefined) | inconclusive: 25.1 µM [inhibitor, single point] | –
31 | [O-]/[N+](=C\c1ccccc1)c1ccc(Br)cc1 | – | inactive: 8.08%
32 | O=C(CSc1nnc(-c2ccncc2)n1-c1ccc(F)cc1)NC(=O)NCc1ccco1 | inconclusive: 50.1 µM [inhibitor, partial curve] | –
33 | O=C1C=C(O)CC(c2ccco2)C1 (centres undefined) | inconclusive: 39.8 µM [inhibitor, partial curve] | –
34 | c1ccc(-c2cc3c(-n4cccc4)ncnc3o2)cc1 | inconclusive: 100 µM [inhibitor, partial curve, poor fit] | –
35 | O=C1ON=C(c2cccc([N+](=O)[O-])c2)/C1=C/c1ccc(O)cc1 | inconclusive: 15.8 µM [inhibitor, partial curve] | –
36 | COC(=O)C1CCN(c2cc(Cl)nc(N)n2)CC1 | – | inactive: -3.42%
37 | O=C(NCCCNC(=O)c1cncc(O)c1)c1cncc(O)c1 | inconclusive: 31.6 µM [inhibitor, single point] | –
38 | O=C(Nc1ccc2nc3ccccc3nc2c1)c1ccccc1 | inconclusive: 44.7 µM [inhibitor, partial curve] | –
39 | O=S(=O)(O)c1cccc2c(N=Nc3ccc(O)c4ncccc34)cccc12 | active: 22.4 µM | –
40 | COc1cc(/C=C2\SC(=S)N(C(C(=O)O)c3ccccc3)C2=O)ccc1O (centres undefined) | active: 50.1 µM | –
41 | O=C1ON=C(c2ccccc2)/C1=C/c1ccc(-c2ccccc2[N+](=O)[O-])o1 | inconclusive: 2.99 µM [inhibitor, partial curve] | –
42 | Cc1cc(NS(=O)(=O)c2ccc(NC(=O)/C=C/c3ccc(Br)cc3)cc2)no1 | inconclusive: 39.8 µM [inhibitor, partial curve] | –
43 | O=C(Nc1ccccc1Cl)c1ccccc1 | inconclusive: 89.1 µM [inhibitor, single point] | –
44 | COCCOC(=O)c1c(C)nc(SCC(=O)Nc2ccc(OC)cc2)c(C#N)c1-c1ccco1 | – | inactive: 6.48%
45 | Cc1ccc(N2C(=O)/C(=C\c3ccco3)SC2=S)cc1 | inconclusive: 39.8 µM [inhibitor, full curve, poor fit] | –
46 | Cc1ccc2[nH]c(-c3ccccc3)cc(=O)c2c1 | – | inactive: 10.2%
47 | COCCCNC(=O)C(=O)NC1CCCCCC1 | – | inactive: -10.7%
48 | Cc1c(C(=O)OCC2CCCO2)[nH]c2c1C(=O)CC(c1ccco1)C2 (centres undefined) | active: 39.8 µM | –
49 | COC(OC)c1ccnc(SCc2ccccc2Cl)n1 | inconclusive: 3.55 µM [inhibitor, full curve, poor fit] | –
